Measurements from patent US20160175328A1, “COMPOSITIONS AND TREATMENTS OF HEART FAILURE IN NON-HUMAN MAMMAL ANIMALS” (CEVA SANTE ANIMALE SA, priority 2008, published 2016).

Test system: dogs in hyperaldosteronemia
Assay: Model for assessing the anti-aldosterone activity (urinary Na/K after aldosterone injection)
Format: in vivo, dog
Conditions: N 15
Description: They have been tattooed in advance for easy identification and situated in stainless steel individual boxes.
A preliminary study was performed in order to determining the ED80 value for the natriuretic effect of aldosterone on its own.
The dogs described above were allocated to different treatment groups (A, B, C, D, and E) and a rest period was left between treatments.
A negative control group A only received the pharmaceutical excipient. The positive control group B only received 3 μg/kg of aldosterone. […] 200 g food was then given immediately after treatment.
The samples were frozen and kept in the dark at approx. −80° C. […] Also, the urine was collected during the time periods ranging from T0-T6h; T6h-T12h and T12h-T24h.
After calibration and count, the quantity of aldosterone present in the sample was thus determined once counted.
The sodium and potassium contents in urines were determined using […]. […] According to this method 500 μL plasma were mixed with ethyl acetate (80/20, V/V) as solvents. […] The compounds and the internal standard (i.e. methyl-testosterone) were separated on a Kromasil C18 column.
A statistical analysis was performed with the STATGRAPHICS Plus version 4.1 software (Manugestics, Inc., Rockville, Md., U.S.A.). The results were presented such as averages±SD; p<0.05 is considered as significant.

Compound	Aldosterone levels at 6 h (group C, spironolactone dosage 0.8, aldosterone 3 μg/kg)	Aldosterone levels at 6 h (group D, spironolactone dosage 2, aldosterone 3 μg/kg)	Aldosterone levels at 6 h (group E, spironolactone dosage 8, aldosterone 3 μg/kg)	Aldosterone levels at 6 h (group B, dosage 0, aldosterone 3 μg/kg)
CC(=O)S[C@@H]1CC2=CC(=O)CC[C@]2(C)[C@H]2CC[C@@]3(C)[C@@H](CC[C@@]34CCC(=O)O4)[C@H]12 [Spironolactone, 7α-acetylthio-3-oxo-17α-pregn-4-ene-21,17-carbolactone]	298.1 ± 168.0 pg/L	285.1 ± 138.9 pg/L	361.3 ± 169.3 pg/L	–
C[C@]12CCC(=O)C=C1CC[C@@H]1[C@@H]2[C@@H](O)C[C@]2(C=O)[C@@H](C(=O)CO)CC[C@@H]12 [Aldosterone]	–	–	–	239.1 ± 156.8 pg/L
